Measurements as given in article PMC10290656.
No constants are given. Whether binding was seen depends on the method and setting. Binding seen in cells or lysates may run through a third protein. Some results given as binding are weak or reduced against the parent protein; the word gives no strength.

Target: T1, Tribbles homolog 1 (Trib1), endogenous in primary murine hepatocytes (mouse (endogenous in primary murine hepatocytes)) (UniProt Q8K4K4)
T1 sequence: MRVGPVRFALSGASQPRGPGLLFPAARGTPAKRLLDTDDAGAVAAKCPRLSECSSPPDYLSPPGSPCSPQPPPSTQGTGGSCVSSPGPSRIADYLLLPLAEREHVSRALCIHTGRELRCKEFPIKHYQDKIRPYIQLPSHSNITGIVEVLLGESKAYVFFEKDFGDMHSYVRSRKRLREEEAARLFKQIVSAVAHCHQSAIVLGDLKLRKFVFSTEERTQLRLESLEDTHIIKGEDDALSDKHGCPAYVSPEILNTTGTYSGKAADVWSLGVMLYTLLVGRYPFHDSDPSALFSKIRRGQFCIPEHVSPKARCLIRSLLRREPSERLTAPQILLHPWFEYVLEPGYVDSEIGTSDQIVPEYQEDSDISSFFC
Test: co-IP; immunoprecipitation with anti-Trib1, anti-Nrf2 or IgG from lysates of primary murine hepatocytes; endogenous proteins

binding: binds
B1: Nuclear factor erythroid 2-related factor 2 (Nrf2), endogenous in primary murine hepatocytes (protein, UniProt Q60795 1-597)
chain: MMDLELPPPGLQSQQDMDLIDILWRQDIDLGVSREVFDFSQRQKDYELEKQKKLEKERQEQLQKEQEKAFFAQFQLDEETGEFLPIQPAQHIQTDTSGSASYSQVAHIPKQDALYFEDCMQLLAETFPFVDDHESLALDIPSHAESSVFTAPHQAQSLNSSLEAAMTDLSSIEQDMEQVWQELFSIPELQCLNTENKQLADTTAVPSPEATLTEMDSNYHFYSSISSLEKEVGNCGPHFLHGFEDSFSSILSTDDASQLTSLDSNPTLNTDFGDEFYSAFIAEPSDGGSMPSSAAISQSLSELLDGTIEGCDLSLCKAFNPKHAEGTMEFNDSDSGISLNTSPSRASPEHSVESSIYGDPPPGFSDSEMEELDSAPGSVKQNGPKAQPAHSPGDTVQPLSPAQGHSAPMRESQCENTTKKEVPVSPGHQKAPFTKDKHSSRLEAHLTRDELRAKALHIPFPVEKIINLPVDDFNEMMSKEQFNEAQLALIRDIRRRGKNKVAAQNCRKRKLENIVELEQDLGHLKDEREKLLREKGENDRNLHLLKRRLSTLYLEVFSMLRDEDGKPYSPSEYSLQQTRDGNVFLVPKSKKPDTKKN
